Reference: patent US20230391872A1 (ANAPTYSBIO, published 2023)
These are yes or no findings as the source states them, for the method shown. Some binding calls cover weakened binding; strength is not graded here.

Columns and labels:
[1] = biological target: cynomolgus monkey BTLA on cells (stably transfected 293c18 clone 1G5; cynomolgus peripheral blood T and B cells) (cynomolgus monkey); test: receptor occupancy in dosed cynomolgus monkeys (10, 50, 100 mg/kg SC, 100 mg/kg IV weekly), flow cytometry of free BTLA with labelled 6G3 IgG4-DyL488 on blood T and B cells [left panels (Receptor Occupancy]
[2] = biological target: cynomolgus monkey BTLA on cells (stably transfected 293c18 clone 1G5; cynomolgus peripheral blood T and B cells) (cynomolgus monkey); test: flow cytometry on 293c18 cells expressing cynomolgus monkey BTLA
[3] = biological target: cynomolgus monkey BTLA on cells (stably transfected 293c18 clone 1G5; cynomolgus peripheral blood T and B cells) (cynomolgus monkey); test: flow cytometry (mean fluorescence intensity) on CD3+ T cells of lysed cynomolgus monkey whole blood
[4] = biological target: cynomolgus monkey BTLA on cells (stably transfected 293c18 clone 1G5; cynomolgus peripheral blood T and B cells) (cynomolgus monkey); test: flow cytometry, AF647-labeled 6G3 IgG4 on cynomolgus monkey whole blood, CD3+ T cells and CD20+ B cells
[5] = biological target: cynomolgus monkey BTLA on cells (stably transfected 293c18 clone 1G5; cynomolgus peripheral blood T and B cells) (cynomolgus monkey); test: flow cytometry on cynomolgus monkey whole blood
[6] = biological target: cynomolgus monkey BTLA on cells (stably transfected 293c18 clone 1G5; cynomolgus peripheral blood T and B cells) (cynomolgus monkey); test: flow cytometry (mean fluorescence intensity) on CD20+ B cells of lysed cynomolgus monkey whole blood
[7] = biological target: cynomolgus monkey BTLA on cells (stably transfected 293c18 clone 1G5; cynomolgus peripheral blood T and B cells) (cynomolgus monkey); test: flow cytometry on cynomolgus monkey T and B cells

Measured: binding

B1: 6G3 IgG4 anti-BTLA antibody (APE10840 / APE12839 / APE13308) (antibody, V domains shown)
VH: QVQLVQSGAEVKKPGSSVKVSCKASGYVFSTSWMNWVRQAPGQGLEWMGRIYPGDADTNYVGKFKGRVTITADKSTTTAYMELSSLRSEDTAVYFCAKSGTFNFGNYRWYFDVWGKGTTVTVSS
VL: AIQLTQSPSSLSASVGDRVTITCRVSENIYSHLAWYQQKPGKAPKLLIYAATNLALGVPSRFSGSGSGTDYTLTISSLQPEDFATYYCQLFWGPPLTFGGGTKVEIKR
notes: Humanized antibody from a mouse hybridoma, tested as human IgG4 (detected with anti-human kappa); Some assays used labelled lots (DyLight 650, AF647, biotin, DyL488); also called 6G3 antibody; APE10840.03
binds: [1] | [2] | [3] | [4] | [5] | [6]

B2: Anti-BTLA clone 10D8 (APE10134) (antibody, V domains shown)
VH: QVQLVQSGAEVKKPGASVKVSCKASGYTLTDYTIHWVRQAPGQRLEWMGWIYPGSGNTKYNDKFKVRVTITRDTSASTAYMELSSLRSEDTAVYYCARRNYYAMEYWGQGTTVTVSS
VL: DIVMTQSPDSLAVSLGERATINCKASQNVFTNVAWYQQKPGQSPKPLIYSASYRYSGVPDRFSGSGSGTDFTLTISSLQAEDVAVYYCQQYSTYPYTFGQGTKLEIKR
binds: [7]
